Data on 6 molecules can be found in patent US20230060388A1.

Protein sequences, listed by entry. Tags and fused reporters are not part of them. Lines headed by an entry give the natural chain unless they say otherwise; changes in a name come on top. Chains listed by the source or under a name are the forms on record and can include a tag or linker. Residues count along the entry.
UniProt P08637, residues 17-208: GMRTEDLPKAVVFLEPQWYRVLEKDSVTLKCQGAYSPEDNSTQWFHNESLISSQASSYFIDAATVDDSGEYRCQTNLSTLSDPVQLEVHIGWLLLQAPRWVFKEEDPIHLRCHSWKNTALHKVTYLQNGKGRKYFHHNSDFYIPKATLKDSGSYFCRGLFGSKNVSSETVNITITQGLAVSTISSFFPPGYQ
UniProt Q15116: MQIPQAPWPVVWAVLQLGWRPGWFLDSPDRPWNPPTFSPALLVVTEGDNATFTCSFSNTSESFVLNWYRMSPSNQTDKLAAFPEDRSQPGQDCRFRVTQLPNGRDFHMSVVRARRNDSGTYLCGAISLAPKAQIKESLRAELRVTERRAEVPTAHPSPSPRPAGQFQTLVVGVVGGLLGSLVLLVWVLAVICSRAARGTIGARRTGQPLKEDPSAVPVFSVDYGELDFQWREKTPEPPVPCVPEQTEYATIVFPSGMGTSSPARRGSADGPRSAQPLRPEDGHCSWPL
human PD1 expressed on transfected Jurkat cells: residues 25-288 of Q15116
his-tagged recombinant human PD1 ECD: residues 25-170 of Q15116

Assay [1] has as its target T1, recombinant human TIGIT extracellular domain (ECD) (human) (UniProt Q495A1).
T1 sequence: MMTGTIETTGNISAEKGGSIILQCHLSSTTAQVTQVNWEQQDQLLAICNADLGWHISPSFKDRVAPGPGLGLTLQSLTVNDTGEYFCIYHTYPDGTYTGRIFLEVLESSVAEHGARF
Nature of the assay: ELISA, VHH supernatant on h-TIGIT ECD coated plates. On the technique in general: An ELISA detects its analyte on a solid surface through an enzyme-linked reagent.

Assay [2] has as its target human TIGIT expressed on cells (stably transfected Jurkat cells) (human) (UniProt Q495A1). Nature of the assay: flow cytometry, h-TIGIT Jurkat cells. A general note: Flow cytometry measures light scatter and fluorescence of single cells or particles in a stream.
Assay [3] shares this target. Nature of the assay: flow cytometry on h-TIGIT transfected Jurkat cells, anti-human IgG Fc Alexa Fluor 488.
In assay [4] the target is recombinant ECD of human FcγRIIIA (human) (UniProt P08637). Nature of the assay: Octet, FcγR ECD on sensor, 5 concentrations. For orientation: Biolayer interferometry detects binding as a change in optical thickness at a sensor tip.
The target is the same in assay [5]. Nature of the assay: Octet (ForteBio), receptor ECD loaded on the sensor, antibody at 5 concentrations (not given) [h-FcγRIIIA binding].
Assay [6] has the same target. Nature of the assay: Octet, recombinant FcγR ECD.
In assay [7] the target is human PD1 expressed on transfected Jurkat cells (human) (UniProt Q15116). Nature of the assay: flow cytometry, h-PD1 Jurkat cells.
For assay [8], the target named is his-tagged recombinant human PD1 ECD (human) (UniProt Q15116). Nature of the assay: Octet, antibody on sensor.
For assay [9] the target is unchanged. Nature of the assay: Octet, antibody loaded on the sensor, his-tagged h-PD1 ECD injected first, his-tagged h-TIGIT ECD second; concentrations not given.
Assay [10] deals with human PD1 expressed on transfected Jurkat cells (human) (UniProt Q15116). Nature of the assay: flow cytometry (whole cell binding) on h-PD1 transfected Jurkat cells, anti-human IgG Alexa Fluor 488.
In assay [11] the target is T1, recombinant human TIGIT extracellular domain (ECD) (human). Nature of the assay: ELISA, VHH supernatant.
For assay [12] the target is unchanged. Nature of the assay: PVR blocking ELISA (blocked ligand: PVR), IC50 plotted against the whole cell binding EC50.
In assay [13] the target is human TIGIT expressed on cells (stably transfected Jurkat cells) (human) (UniProt Q495A1). Nature of the assay: whole cell binding to h-TIGIT stable cells, EC50 plotted against the blocking ELISA IC50.

Results are given in words; binding and its absence hold for the method and conditions named. Some results given as binding are weak or reduced against the parent protein; the word gives no strength. For some assays here: Tags and fused reporters may be left off the sequences shown.

B1: 4D5 VHH (VHH)
VHH: VDSGGGAVKAGDSLRLVCSAPGRTHGRAFNEYAMAWFRQGPGKERESVAAISSDGRFTYYAASVKGRFTISKDNAKSAAFLQMNSLKPEDTAVYYCAARDSGSGYYSRAQWYDYWGQGTQVTVSS
Regarding B1, the binding entry in [1] is on record as “binds”.

B2: 10H5 VHH (VHH)
VHH: GGGLVQAGGSLRLACTASDPPFANYETTFKSMAMGWVRHIPGKERELVAATNYNGGRTWYSNSAKARSTISRDNAKNTVYLQMSSLKPEDTAVYYCAAKATEGTTFPSRTYEFWGQGIQVTVSS
In the case of B2, the binding result in assay [1] was “binds”.

B3: 3F10 bivalent VHH antibody (Fc fusion, not shown: small tags and cut ends)
chain: QVQLVESGGGLVQAGGSLRLSCASSEHTFSNFPMGWFRQAPGKERNVVAAIDSSGRLTYYADSVKGRFTISKDNAKSTVYLQMNSLKSEDTARYYCAARTGGVGYYSRSSFYNYWGQGTLVTVSS
As for B3, the binding result in [2] and in assay [3] was “binds” in each case.

B4: 2A3-LT-Fc VLPLL (Fc mutations L235V, F243L, R292P, Y300L, P396L) (Fc fusion)
chain: QVQLVESGGGVVQPGRSLRLSCAASGGSFSSYPMGWFRQAPGKERESVAAISSDLRFTYYADSVKGRFTISRDNSKNTLYLQMNSLRAEDTAVYYCAARTSGVGYYSRAQWYDYWGQGTLVTVSSEPKSCDKTHTCPPCPAPELVGGPSVFLLPPKPKDTLMISRTPEVTCVVVDVSHEDPEVKFNWYVDGVEVHNAKTKPPEEQYNSTLRVVSVLTVLHQDWLNGKEYKCKVSNKALPAPIEKTISKAKGQPREPQVYTLPPSREEMTKNQVSLTCLVKGFYPSDIAVEWESNGQPENNYKTTPLVLDSDGSFFLYSKLTVDKSRWQQGNVFSCSVMHEALHNHYTQKSLSLSPGK
B4: the binding entry in assay [4], in assay [5] and in assay [6] was “binds” in each case.

B5: parental anti-PD1 monoclonal antibody (antibody, human IgG4 S228P, kappa, V domains shown)
VH: QVQLVESGGGLVKPGGSLRLSCAASGFTFSNYGMSWIRQAPGKGLEWVSTISGGGSNIYYADSVKGRFTISRDNAKNSLYLQMNSLRAEDTAVYYCVSYYYGIDFWGQGTSVTVSS
VL: DIQMTQSPSSLSASVGDRVTITCKASQDVTTAVAWYQQKPGKAPKLLIYWASTRHTGVPSRFSGSGSGTDFTLTISSLQPEDFATYYCQQHYTIPWTFGGGTKLEIKR
As for B5, the binding entry in assay [7], in assay [8], in assay [9] and in assay [10] was “binds” each time.

B6: 1G1-1C12 VHH (VHH)
VHH: QVQLVESGGGVVQPGRSLRLSCAASGPSFSSYPMGWFRQAPGKERESVAAISSDLRFTYYADSVKGRFTISRDNSKNTLYLQMNSLRAEDTAVYYCAARDSGSGYYSRKQWYDYWGQGTLVTVSS
With B6, the binding entry in assay [11], in assay [12] and in assay [13] was “binds” in each case.
